# For at least one entry, the source does not settle the construct or the ends of the probe. Weaker means in comparison with the reference protein, sequence or condition of that experiment. Tags and fusion partners may be left off the protein sequences shown.
# Biological target: T1, SlmA (UniProt P0C093)
# T1 sequence (looked up, limits assumed): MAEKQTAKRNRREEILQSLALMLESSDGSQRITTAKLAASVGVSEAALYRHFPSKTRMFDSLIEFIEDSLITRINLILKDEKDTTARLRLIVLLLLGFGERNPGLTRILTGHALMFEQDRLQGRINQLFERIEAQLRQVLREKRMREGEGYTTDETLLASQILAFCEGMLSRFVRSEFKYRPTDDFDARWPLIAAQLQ
# Experiment: fluorescence anisotropy
# Details: 500 mM KCl, no saturation at 4 uM SlmA monomer; 50 mM Tris-HCl, 300 mM KCl, 2 mM MgCl2, pH 7.5, 20 C; 10 nM labeled SBS in SlmA anisotropy titrations; recombinant protein; protein details: SUMO tag cleaved off
sequence,measurement,value
TCAACGTTAGTGACCATTTACTTACTTTTG (double strand) [SBS17],binding result,binds more weakly
